No constants are given. Whether binding was seen depends on the method and setting. Some entries that bind do so weakly or less than the wild type. Sequences can lack the tags named with a protein.
What was measured:
[1] = target: T1, His-tagged canine PD-L1 protein (6X His tagged extracellular domain of cPD-L1) (canine) (UniProt E2RKZ5); test: blocking plate assay: cPD-L1-His on Ni-NTA plate; blocked ligands cPD-1-hFc and mPD-1-hFc; one 12C concentration, not given
T1 sequence: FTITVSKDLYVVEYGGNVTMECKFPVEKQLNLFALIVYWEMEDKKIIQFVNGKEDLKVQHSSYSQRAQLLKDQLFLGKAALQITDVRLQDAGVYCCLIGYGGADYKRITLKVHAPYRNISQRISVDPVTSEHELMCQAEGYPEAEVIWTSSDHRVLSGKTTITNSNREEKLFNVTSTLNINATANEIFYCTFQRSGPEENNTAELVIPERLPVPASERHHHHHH

[2] = target: T2, canine PD-L1 (Flag-cPD-L1) expressed on BT549 cells (canine) (UniProt E2RKZ5); test: summary sentence on the in vitro and in vivo validation of mAb 12C and mAb 3C
T2 sequence: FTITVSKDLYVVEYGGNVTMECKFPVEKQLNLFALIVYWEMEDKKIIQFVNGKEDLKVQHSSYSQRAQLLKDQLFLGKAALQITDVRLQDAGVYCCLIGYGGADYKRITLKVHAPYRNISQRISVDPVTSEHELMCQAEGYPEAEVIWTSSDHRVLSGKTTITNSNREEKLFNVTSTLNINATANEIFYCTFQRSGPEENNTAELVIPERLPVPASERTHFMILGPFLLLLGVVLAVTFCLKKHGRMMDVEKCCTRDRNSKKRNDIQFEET

[3] = target: T1, His-tagged canine PD-L1 protein (6X His tagged extracellular domain of cPD-L1) (canine); test: plate assay: His-tagged PD-L1 on Ni-NTA 96-well plate, antibody, HRP anti-canine IgG secondary, OD450
[4] = target: T1, His-tagged canine PD-L1 protein (6X His tagged extracellular domain of cPD-L1) (canine); test: cell-free ELISA-based binding assay on His-tagged extracellular domain of cPD-L1, bound antibody as OD450
[5] = target: T1, His-tagged canine PD-L1 protein (6X His tagged extracellular domain of cPD-L1) (canine); test: cell-free blockade assay: canine PD-L1-His on Ni-NTA plate; blocked ligand PD-1-Fc (cPD-1-hFc), HRP anti-human IgG Fc secondary, OD450
[6] = target: T1, His-tagged canine PD-L1 protein (6X His tagged extracellular domain of cPD-L1) (canine); test: ELISA-based plate assay, bound antibody as OD450
[7] = target: T1, His-tagged canine PD-L1 protein (6X His tagged extracellular domain of cPD-L1) (canine); test: ELISA-based cell-free binding assay with the 6X His tagged cPD-L1 extracellular domain (FIG. 7A)
[8] = target: T1, His-tagged canine PD-L1 protein (6X His tagged extracellular domain of cPD-L1) (canine); test: Octet biolayer interferometry, His-tagged cPD-L1 loaded on the NTA biosensor

Measured: binding

B1: murine monoclonal antibody cPD-L1 12C10E4 from the hybridoma (antibody, mouse IgG1, V domains shown)
VH: QVQLKQSGPGLVQPSQSLSITCTISGFSLTSFGVHWVRQSPGKGLEWLGVIWSGGSTDYNAAFTSRLSINKDNSKSQVFFKMNSLQADDTAIYYCARGGGPDWYFDVWGTGTTVTVSS
VL: DIVLTQSPASLAVSLGQRATISCRASESVEYYGTSLMQWYQQKPGQPPKLLIFAASNVKSGVPARFSGSGSGTDFSLNIHPVEEDDIAMYFCQQSGKVPHTFGGGTKLEIK
notes: Hybridoma antibody from A/J mice immunized with the cPD-L1 extracellular domain-human Fc; also called mAb 12C; murine 12C antibody
binds: [1] | [2]

B2: cPD-L1 12C10E4 chimeric antibody (mouse variable domains, canine IgG2 / canine kappa constant domains) (antibody)
heavy: QVQLKQSGPGLVQPSQSLSITCTISGFSLTSFGVHWVRQSPGKGLEWLGVIWSGGSTDYNAAFTSRLSINKDNSKSQVFFKMNSLQADDTAIYYCARGGGPDWYFDVWGTGTTVTVSSASTTAPSVFPLAPSCGSTSGSTVALACLVSGYFPEPVTVSWNSGSLTSGVHTFPSVLQSSGLYSLSSMVTVPSSRWPSETFTCNVAHPASKTKVDKPVPKRENGRVPRPPDCPKCPAPEMLGGPSVFIFPPKPKDTLLIARTPEVTCVVVDLDPEDPEVQISWFVDGKQMQTAKTQPREEQFNGTYRVVSVLPIGHQDWLKGKQFTCKVNNKALPSPIERTISKARGQAHQPSVYVLPPSREELSKNTVSLTCLIKDFFPPDIDVEWQSNGQQEPESKYRTTPPQLDEDGSYFLYSKLSVDKSRWQRGDTFICAVMHEALHNHYTQKSLSHSPGK
light: DIVLTQSPASLAVSLGQRATISCRASESVEYYGTSLMQWYQQKPGQPPKLLIFAASNVKSGVPARFSGSGSGTDFSLNIHPVEEDDIAMYFCQQSGKVPHTFGGGTKLEIKRSMEIKRTDAQPAVYLFQPSPDQLHTGSASVVCLLNSFYPKDINVKWKVDGVIQDTGIQESVTEQDKDSTYSLSSTLTMSSTEYLSHELYSCEITHKSLPSTLIKSFQRSECQRVD
notes: Expressed in ExpiCHO-S cells from pTRIOZ-cIgG2-12C10E4; also called 12C chimeric antibody; mAb 12C
not listed: [1] | [2]
binds: all other assays above

B3: cPD-L1 3C chimeric antibody clone (3C8D3 variable domains, canine constant domains) (antibody, V domains shown)
VH: EVQLQQSGPELVKPGASVKMSCKASGYTFTDYVLHWVRQTNGKSLEWIGEINPSNGDTYYNQKFKGKATLTVDTSSSTAYMQLTTLTSEDSAVYYCARSDYSNYVGFAYWGQGTLVTVSA
VL: DIVMTQSHKFMSTSVGDRVSITCKVSQDVGTAVAWYQQKPGQCPKRLIYWTSTRHTGVPDRFTGSGSGTDFTLTISNVQSEDLVDYFCQQYSSYPLTFGGGTKLELKR
notes: also called cPD-L1 3C8D3
binds: [3]

B4: cPD-L1 A12C10E4 chimeric antibody (antibody)
heavy: B2 heavy
light: DIVLTQSPASLAVSLGQRATISCRASESVEYYGTSLMQWYQQKPGQPPKLLIFAASNVKSGVPARFSGSGSGTDFSLNIHPVEEDDIAMYFCQQSGKVPHTFGGGTKLEIKRSMADAQPAVYLFQPSPDQLHTGSASVVCLLNSFYPKDINVKWKVDGVIQDTGIQESVTEQDKDSTYSLSSTLTMSSTEYLSHELYSCEITHKSLPSTLIKSFQRSECQRVD
notes: also called mAb A12C; cPD-L1 A12C10E4 cIgG
binds: [4] | [5] | [7]
